Results: patent US20170007727A1, “METHODS OF IMAGING WITH Ga-68 LABELED MOLECULES” (Immunomedics, Inc., priority 2015, published 2017)
At least one peptide structure holds a part that was inferred or is arguable (an end, a ring closure or a residue). Numbered stars: 1 amine (or outer) side, 2 acyl side, 3 side chain; on linkers, the order of the positions; unused ones are H or OH. Square brackets hold non-standard residues; d marks the D form. Side chains are listed from the residue outwards. Peptide text beside a SMILES is read from it. * marks the point of attachment. DOTA = O=C(O)CN1CCN(CC(=O)O)CCN(CC(=O)*)CCN(CC(=O)O)CC1; NH(2-(imidazol-4-yl)ethyl) = c1ncc(CCN*)[nH]1; Suc = O=C(CCC(=O)[*:2])[*:1]

How the values were obtained:
[1] = Octanol-water partition coefficient; assay type: physicochemical; details: octanol / PBS
[2] = tested on: AR42J tumors; test: PET/CT imaging of mice with s.c. AR42J tumors; assay type: in vivo; details: 10 MBq i.v., scans one and two hours after injection
[3] = tested on: metastatic MTC; test: Optimization of pretargeted immuno-PET in patients; assay type: in vivo, human; details: fifteen patients, all cohorts
[4] = tested on: metastatic breast cancer; test: Pretargeted immuno-PET/CT versus FDG-PET/CT in patients; assay type: in vivo, human

Structure (SMILES)	log Poctanol/water [1]	fused PET and CT scans [2]	tumor uptake in patients [3]	Sensitivity, Bone ([4]; 13 patients)	Sensitivity, Liver ([4]; 13 patients)	Sensitivity, Lung ([4]; 13 patients)	Sensitivity, Nodes ([4]; 13 patients)	Sensitivity, Overall ([4]; 13 patients)	number of lesions detected, Bone ([4]; 13 patients)	number of lesions detected, Lung ([4]; 13 patients)	number of lesions detected, Nodes ([4]; 13 patients)	number of lesions detected, Overall ([4]; 13 patients)	number of lesions detected, Liver ([4]; 13 patients, iPET: 150 MBq peptide 24h to 30h after 120 nmol TF2)	iPET lesions confirmed by Gold Standard ([4]; out of five hundred and fifty-nine iPET lesions)
C[C@@H](O)[C@@H]1NC(=O)[C@H](CCCCN)NC(=O)[C@@H](Cc2c[nH]c3ccccc23)NC(=O)[C@H](Cc2ccccc2)NC(=O)[C@@H](NC(=O)[C@@H](Cc2ccccc2)NC(=O)CN2CCN(CC(=O)O)CCN(CC(=O)O)CC2)CSSC[C@@H](C(=O)N[C@H](CO)[C@@H](C)O)NC1=O [Al^18F(IMP 466)]	−2.44±0.12	high uptake in the tumor and retention in the kidneys	–	–	–	–	–	–	–	–	–	–	–	–
C[C@@H](O)[C@@H]1NC(=O)[C@H](CCCCN)NC(=O)[C@@H](Cc2c[nH]c3ccccc23)NC(=O)[C@H](Cc2ccccc2)NC(=O)[C@@H](NC(=O)[C@@H](Cc2ccccc2)NC(=O)CN2CCN(CC(=O)O)CCN(CC(=O)O)CC2)CSSC[C@@H](C(=O)N[C@H](CO)[C@@H](C)O)NC1=O [^68Ga(IMP 466), metal not drawn]	−3.79±0.07	high uptake in the tumor and retention in the kidneys	–	–	–	–	–	–	–	–	–	–	–	–
NC(=O)[C@@H](CCCCNC(=O)CNC(=O)CCC(=O)NCCc1c[nH]cn1)NC(=O)[C@@H](CCC(=O)O)NC(=O)[C@@H](CCCCNC(=O)CNC(=O)CCC(=O)NCCc1c[nH]cn1)NC(=O)[C@@H](Cc1ccc(O)cc1)NC(=O)CN1CCN(CC(=O)O)CCN(CC(=O)O)CCN(CC(=O)O)CC1 [^68Ga-IMP 288, metal not drawn] ({DOTA}-[dY][dK]([Gly-Suc-NH(2-(imidazol-4-yl)ethyl)])[dE][dK]([Gly-Suc-NH(2-(imidazol-4-yl)ethyl)])-NH2)	–	–	Good tumor uptake	100%	100%	37.5%	94.0%	93.8%	441	4	20	559	94	Five hundred and fifteen
